This assay has as its target dominant-negative Flag-RAB11A (S25N) (UniProt P62491). The assay can be described thus: co-IP; lysates of HEK293 cells transfected with Flag-RAB11A (wildtype or dominant-negative) and HA-Merlin, precipitated on anti-FLAG affinity gel; HA-Merlin detected.

No constants are given. Whether binding was seen depends on the method and setting. In cells and extracts the contact can be indirect. Binding can be weak; no strength is given.

As to “hemagglutinin (HA)-tagged Merlin (from UniProt P35240 1-595)”, the binding result is reported as “binds”.
